Measured values taken from PubChem BioAssay AID758 (NMMLSC, 2007).
In all, about 190,000 compounds went through this assay and about 110 (0.058%) were called active. The inconclusive results got no clear call from the source; some entries with a clear call stand among them for comparison.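 How the source made its calls: active means fluorescent GTP binding to Rab7 beads changed by at least 20 points from the 100% baseline, either direction, mostly lower; inconclusive means compound itself probably fluorescent, or too few beads counted; inactive means the rest.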

system: Rab7 GTPase wild type (dog), Bodipy-FL-GTP binding; test: modulators of GTP binding to Rab7, primary screen, biochemical, wildtype, multiplex bead flow cytometry (AID 758); settings: GST-Rab7 beads, fluorescent GTP binding, at 10 µM, actives lie on both sides, untreated = 100%, excess cold GTP = 0%;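 further: median green fluorescence of bound Bodipy-FL-GTP per Rab7 bead population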

Row | Structure (SMILES) | GTP binding activity (percent of control)
1 | COc1cccc(CC2(CO)CCCN(Cc3cn[nH]c3-c3cc(C)ccc3C)C2)c1 (stereo unspecified) | inactive: 98%
2 | CN(Cc1ccc(-n2cccn2)cc1)Cc1nc(-c2cnccn2)no1 | inconclusive: 99%
3 | C=C(C)c1cccc(C(C)(C)NC(=O)Nc2ccc3[nH]c(=O)[nH]c3c2)c1 | inconclusive: 106%
4 | Cc1cc2nc3c(=O)[nH]c(=O)[nH]c3nc2c([N+](=O)[O-])c1N | inconclusive: 71%
5 | COc1ccc2cc3cc(C(=O)NCc4ccccn4)oc3nc2c1 | inconclusive: 97%
6 | CN(C)S(=O)(=O)c1ccc(N2CCCC2)c(C(=O)N2CCN(c3ccc([N+](=O)[O-])cc3)CC2)c1 | inconclusive: 99%
7 | C(=N\N(Cc1ccccc1)c1ccccc1)/c1cccnc1 | inactive: 100%
8 | CC(NC(=O)C1C2C=CC(C2)C1C(=O)O)c1ccccc1 (stereo unspecified) | inconclusive: 101%
9 | COCCCNC(=O)c1ccc2nc3ccccc3c(=O)n2c1 | inconclusive: 95%
10 | CC(/C=N/NC(=O)c1cc(-c2cccnc2)nc2c1c(C)nn2-c1ccccc1)=C\c1ccccc1 | inactive: 100%
11 | COc1ccc(NC(=S)N2CCNC(=O)C2CC(=O)Nc2cccc(Cl)c2C)cc1 (stereo unspecified) | inactive: 93%
12 | CCN1C(c2ccccc2)=C(c2ccccc2)S/C1=C/C=C1\SC(=S)N(C)C1=O | active: 72%
13 | CNC(=O)COC(=O)c1cc2c(C)nn(-c3ccc(F)cc3)c2s1 | inactive: 102%
14 | CCOC(=O)n1c(=O)n(Cc2ccc(Cl)c(Cl)c2)c2ccccc21 | inactive: 91%
15 | COc1ccccc1N=c1oc2c(OC)cccc2cc1C(=O)NCc1ccco1 | inconclusive: 91%
16 | O=C(Nc1ccc(N2CCOCC2)c(Cl)c1)c1ncn[nH]1 | inconclusive: 102%
17 | Cc1ccc(C(=O)/C=C/c2ccc(-c3ccc(C)cc3)o2)cc1 | inconclusive: 90%
18 | Cc1ccc(C)c(CSCC(=O)NCc2cccs2)c1 | inconclusive: 94%
19 | CNCCCCOc1ccc(C(C)(C)C)cc1Cl | inactive: 107%
20 | COc1ccc(CNc2oc(Cc3cccc4ccccc34)nc2C#N)cc1 | inconclusive: 104%
21 | COc1ccc(CC(=O)N2CCOCC2)cc1 | inconclusive: 99%
22 | O=C1CC(/C=C/c2ccco2)=Nc2ccccc2N1 | inconclusive: 101%
23 | Cc1cc(C)n(C(=O)CNC(=O)C2COc3ccccc3O2)n1 (stereo unspecified) | inactive: 96%

Row | Structure (SMILES) | GTP binding activity (percent of control)
24 | O/N=C1\CC/C(=N\O)c2nn(-c3ccccc3Cl)nc21 | inconclusive: 93%
25 | CCn1cc([N+](=O)[O-])c(C(=O)Nc2nc3ccc(OC)cc3s2)n1 | inactive: 93%
26 | O=C(O)C1Sc2[nH]c(=O)sc2C2c3cc(Cl)ccc3OC(=O)C12 (stereo unspecified) | inconclusive: 89%
27 | COCCn1c(SCC(=O)Nc2cccc(C)n2)nnc1-c1ccco1 | inactive: 96%
28 | CCOC(=O)c1c(NC(=S)NCC2CCCO2)sc(C)c1C (stereo unspecified) | inconclusive: 94%
29 | O=C(OC(C(=O)NCc1cccs1)c1ccccn1)c1cccs1 (stereo unspecified) | inconclusive: 23%
30 | COc1ccc(N(CC(=O)NCc2ccco2)S(=O)(=O)c2ccccc2)cc1 | inconclusive: 99%
31 | CCOC(=O)c1c(NC(=O)C(=O)N/N=C/c2ccc(OCC)cc2)sc2c1CCCCC2 | inactive: 97%
32 | O=C(NCC1CCCO1)C1CC(=O)N(C2CCCC2)C1 (stereo unspecified) | inconclusive: 103%
33 | CCN(CC(=O)Nc1c(F)cccc1F)C(=O)CCc1ccc(OC)cc1 | inactive: 108%
34 | COc1cc(C)ccc1OCCOc1c(Cl)cc(Cl)cc1Cl | inconclusive: 89%
35 | CCCCNc1nc(=S)[nH]c2cc(OC)c(OC)cc12 | inconclusive: 74%
36 | Cc1cc(C(=O)N/N=C/c2ccc(O)c([N+](=O)[O-])c2)c(C)n1-c1ccc(F)cc1 | inconclusive: 90%
37 | O=c1cc(CN2CCN(S(=O)(=O)c3ccc4c(c3)OCCO4)CC2)c2ccc(O)cc2o1 | inactive: 92%
38 | N#Cc1ccc(N/N=C/c2ccccc2)c([N+](=O)[O-])c1 | inactive: 101%
39 | Nn1cnnc1SCC(=O)Nc1ccc2c(c1)OCO2 | inconclusive: 95%
40 | COc1ccc(/C=C(\C#N)C(=O)OCC(=O)Nc2ccc(-c3nc4ccc(C)cc4s3)cc2)cc1 | inconclusive: 94%
41 | C=CCn1c(=O)c(C(=O)Nc2ccccc2S(N)(=O)=O)c(O)c2ccccc21 | inconclusive: 93%
42 | Cc1c(C(=O)Nc2cccc3cccnc23)oc2ccccc12 | inconclusive: 95%
43 | CSc1ccc(S(=O)(=O)Nc2ccc(N3CCOCC3)c(Cl)c2)cc1 | inactive: 105%
44 | COc1ccc(C2Nc3ccccc3C(=O)N2c2ccc(C)cc2)cc1Cn1nnc2ccccc21 (stereo unspecified) | inconclusive: 92%
45 | O=C(Nc1ccc2c(c1)CCC2)c1cccc(S(=O)(=O)N2CCN(c3ccc(F)cc3)CC2)c1 | inconclusive: 107%
46 | CC(C)N(C(=O)COC(=O)c1cccc(C(=O)OCC(=O)N(C(C)C)C(C)C)n1)C(C)C | inactive: 107%
